Assay results published in the supplement of paper PMC10849652.
This is one part of the list.

By UniProt entry, the sequences of proteins in these tests, tags left out. Where a name states a change or a piece, a line headed by the entry shows the natural chain unless it says otherwise.
UniProt Q6GQQ9: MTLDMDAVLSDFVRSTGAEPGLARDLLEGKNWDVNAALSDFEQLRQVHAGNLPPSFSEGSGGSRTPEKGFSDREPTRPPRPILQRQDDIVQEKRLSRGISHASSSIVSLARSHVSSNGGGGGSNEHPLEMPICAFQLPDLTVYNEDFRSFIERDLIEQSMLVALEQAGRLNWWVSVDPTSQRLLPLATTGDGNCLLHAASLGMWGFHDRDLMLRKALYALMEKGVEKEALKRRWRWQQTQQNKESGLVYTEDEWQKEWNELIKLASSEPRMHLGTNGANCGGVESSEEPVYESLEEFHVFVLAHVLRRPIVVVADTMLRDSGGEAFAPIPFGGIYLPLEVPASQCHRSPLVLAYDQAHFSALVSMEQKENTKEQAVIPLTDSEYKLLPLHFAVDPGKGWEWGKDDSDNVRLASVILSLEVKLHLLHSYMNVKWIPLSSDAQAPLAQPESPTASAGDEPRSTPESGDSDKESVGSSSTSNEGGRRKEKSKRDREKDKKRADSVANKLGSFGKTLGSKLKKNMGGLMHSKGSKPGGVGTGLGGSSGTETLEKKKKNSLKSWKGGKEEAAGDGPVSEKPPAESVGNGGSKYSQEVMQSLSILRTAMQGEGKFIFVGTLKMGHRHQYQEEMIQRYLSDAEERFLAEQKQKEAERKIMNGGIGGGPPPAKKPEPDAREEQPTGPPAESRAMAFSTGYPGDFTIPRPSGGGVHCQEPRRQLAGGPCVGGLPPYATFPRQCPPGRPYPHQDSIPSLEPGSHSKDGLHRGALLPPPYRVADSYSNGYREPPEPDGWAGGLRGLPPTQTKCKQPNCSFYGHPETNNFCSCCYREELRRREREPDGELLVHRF
UniProt Q5SWX8: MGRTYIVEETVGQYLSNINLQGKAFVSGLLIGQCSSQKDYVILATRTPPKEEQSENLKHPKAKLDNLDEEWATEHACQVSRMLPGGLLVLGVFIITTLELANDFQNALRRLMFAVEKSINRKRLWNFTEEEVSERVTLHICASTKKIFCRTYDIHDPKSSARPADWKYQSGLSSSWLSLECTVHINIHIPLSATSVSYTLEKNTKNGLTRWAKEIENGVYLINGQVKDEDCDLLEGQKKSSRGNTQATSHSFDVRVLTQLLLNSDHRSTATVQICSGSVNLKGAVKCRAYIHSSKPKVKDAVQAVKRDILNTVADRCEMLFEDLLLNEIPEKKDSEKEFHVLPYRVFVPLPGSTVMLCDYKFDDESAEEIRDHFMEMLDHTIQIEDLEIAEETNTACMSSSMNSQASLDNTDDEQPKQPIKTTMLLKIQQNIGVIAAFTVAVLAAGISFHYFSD
UniProt O43482, whole entry, looked up: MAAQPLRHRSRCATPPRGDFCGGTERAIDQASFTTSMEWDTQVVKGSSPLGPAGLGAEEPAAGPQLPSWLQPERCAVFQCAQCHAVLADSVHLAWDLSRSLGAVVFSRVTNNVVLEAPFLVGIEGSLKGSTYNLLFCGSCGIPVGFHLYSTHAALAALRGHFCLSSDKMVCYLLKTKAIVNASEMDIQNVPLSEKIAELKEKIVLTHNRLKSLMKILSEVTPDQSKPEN
UniProt O75459: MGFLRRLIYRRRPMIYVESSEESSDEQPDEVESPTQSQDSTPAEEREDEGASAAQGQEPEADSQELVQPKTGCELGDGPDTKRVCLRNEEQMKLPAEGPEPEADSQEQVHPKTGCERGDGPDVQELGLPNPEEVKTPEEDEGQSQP
UniProt Q5SRE5: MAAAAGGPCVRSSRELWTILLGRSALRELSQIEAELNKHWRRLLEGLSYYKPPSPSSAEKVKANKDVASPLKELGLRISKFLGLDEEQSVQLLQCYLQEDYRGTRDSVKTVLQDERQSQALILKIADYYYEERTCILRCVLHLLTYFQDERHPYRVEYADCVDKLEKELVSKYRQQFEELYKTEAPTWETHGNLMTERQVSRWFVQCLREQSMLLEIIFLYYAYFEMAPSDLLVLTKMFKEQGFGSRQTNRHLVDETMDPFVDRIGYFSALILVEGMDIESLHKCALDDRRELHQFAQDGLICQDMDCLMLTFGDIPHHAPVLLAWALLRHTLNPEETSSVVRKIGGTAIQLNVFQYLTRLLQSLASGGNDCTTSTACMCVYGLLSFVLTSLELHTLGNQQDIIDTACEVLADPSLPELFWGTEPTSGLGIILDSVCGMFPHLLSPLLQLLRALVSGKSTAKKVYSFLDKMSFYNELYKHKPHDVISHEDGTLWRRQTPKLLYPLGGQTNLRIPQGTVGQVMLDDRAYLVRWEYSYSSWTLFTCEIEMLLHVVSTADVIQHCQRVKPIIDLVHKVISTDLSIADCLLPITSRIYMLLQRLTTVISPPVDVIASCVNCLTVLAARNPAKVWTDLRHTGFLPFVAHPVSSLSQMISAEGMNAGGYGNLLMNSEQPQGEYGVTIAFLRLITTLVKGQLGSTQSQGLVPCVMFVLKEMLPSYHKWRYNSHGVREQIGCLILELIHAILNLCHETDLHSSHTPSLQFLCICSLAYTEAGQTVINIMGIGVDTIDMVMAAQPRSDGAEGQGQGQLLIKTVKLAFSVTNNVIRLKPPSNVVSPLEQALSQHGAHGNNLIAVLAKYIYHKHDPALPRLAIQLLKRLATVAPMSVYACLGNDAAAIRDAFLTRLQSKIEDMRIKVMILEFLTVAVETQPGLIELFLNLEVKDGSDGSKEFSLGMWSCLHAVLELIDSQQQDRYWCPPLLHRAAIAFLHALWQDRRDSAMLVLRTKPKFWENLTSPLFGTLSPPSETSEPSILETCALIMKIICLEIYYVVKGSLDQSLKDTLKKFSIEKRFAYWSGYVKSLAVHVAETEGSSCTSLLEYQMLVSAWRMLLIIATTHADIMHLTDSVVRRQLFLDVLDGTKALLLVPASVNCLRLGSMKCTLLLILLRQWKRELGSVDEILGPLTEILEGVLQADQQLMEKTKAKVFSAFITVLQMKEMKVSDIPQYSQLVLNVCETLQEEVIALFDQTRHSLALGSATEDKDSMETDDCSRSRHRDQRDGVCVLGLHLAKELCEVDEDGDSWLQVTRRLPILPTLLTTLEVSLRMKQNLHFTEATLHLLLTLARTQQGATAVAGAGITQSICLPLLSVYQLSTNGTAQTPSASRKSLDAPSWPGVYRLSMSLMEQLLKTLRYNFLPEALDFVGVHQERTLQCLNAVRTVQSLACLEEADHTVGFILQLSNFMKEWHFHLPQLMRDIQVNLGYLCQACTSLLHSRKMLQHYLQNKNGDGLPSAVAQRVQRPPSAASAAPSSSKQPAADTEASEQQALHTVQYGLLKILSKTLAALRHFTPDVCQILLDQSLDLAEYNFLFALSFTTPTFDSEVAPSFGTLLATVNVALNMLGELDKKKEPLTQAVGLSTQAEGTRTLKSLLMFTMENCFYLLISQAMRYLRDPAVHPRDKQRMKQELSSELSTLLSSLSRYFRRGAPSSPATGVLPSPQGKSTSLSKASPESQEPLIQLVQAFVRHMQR
UniProt O43252: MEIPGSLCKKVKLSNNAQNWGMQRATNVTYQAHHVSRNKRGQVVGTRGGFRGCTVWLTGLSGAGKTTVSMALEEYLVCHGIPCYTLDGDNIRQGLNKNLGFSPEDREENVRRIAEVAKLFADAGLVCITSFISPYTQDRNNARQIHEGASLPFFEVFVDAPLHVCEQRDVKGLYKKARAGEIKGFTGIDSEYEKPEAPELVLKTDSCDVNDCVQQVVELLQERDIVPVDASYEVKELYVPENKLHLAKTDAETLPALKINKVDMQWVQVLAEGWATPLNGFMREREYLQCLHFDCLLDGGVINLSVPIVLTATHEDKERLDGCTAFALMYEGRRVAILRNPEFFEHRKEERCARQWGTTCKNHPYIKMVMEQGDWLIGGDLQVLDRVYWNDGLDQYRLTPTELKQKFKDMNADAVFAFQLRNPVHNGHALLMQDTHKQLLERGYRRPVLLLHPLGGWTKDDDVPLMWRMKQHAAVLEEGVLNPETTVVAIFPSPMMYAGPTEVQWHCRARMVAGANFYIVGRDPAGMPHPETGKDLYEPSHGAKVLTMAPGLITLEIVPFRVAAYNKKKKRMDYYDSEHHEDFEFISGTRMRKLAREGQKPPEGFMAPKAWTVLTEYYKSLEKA
UniProt O15504: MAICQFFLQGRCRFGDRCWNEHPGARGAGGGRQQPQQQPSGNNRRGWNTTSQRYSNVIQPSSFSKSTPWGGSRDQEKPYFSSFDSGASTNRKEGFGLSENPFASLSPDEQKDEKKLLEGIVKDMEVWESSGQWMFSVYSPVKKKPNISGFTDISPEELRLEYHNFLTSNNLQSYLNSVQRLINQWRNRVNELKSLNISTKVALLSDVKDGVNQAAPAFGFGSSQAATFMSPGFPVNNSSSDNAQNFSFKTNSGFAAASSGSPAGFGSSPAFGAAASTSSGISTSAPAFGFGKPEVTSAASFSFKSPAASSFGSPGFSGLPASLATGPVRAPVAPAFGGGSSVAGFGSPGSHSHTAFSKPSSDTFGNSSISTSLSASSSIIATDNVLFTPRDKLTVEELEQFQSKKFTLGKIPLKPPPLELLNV
UniProt Q9NPF4: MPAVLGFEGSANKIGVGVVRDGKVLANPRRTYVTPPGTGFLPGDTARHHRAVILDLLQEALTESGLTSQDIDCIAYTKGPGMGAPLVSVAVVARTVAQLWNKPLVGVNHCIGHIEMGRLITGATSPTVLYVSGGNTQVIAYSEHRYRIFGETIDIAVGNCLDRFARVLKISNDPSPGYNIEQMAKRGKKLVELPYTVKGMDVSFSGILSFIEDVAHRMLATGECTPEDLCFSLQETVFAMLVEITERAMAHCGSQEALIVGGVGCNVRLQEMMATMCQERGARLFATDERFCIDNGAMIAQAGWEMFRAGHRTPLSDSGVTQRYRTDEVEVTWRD
UniProt Q9BXB4: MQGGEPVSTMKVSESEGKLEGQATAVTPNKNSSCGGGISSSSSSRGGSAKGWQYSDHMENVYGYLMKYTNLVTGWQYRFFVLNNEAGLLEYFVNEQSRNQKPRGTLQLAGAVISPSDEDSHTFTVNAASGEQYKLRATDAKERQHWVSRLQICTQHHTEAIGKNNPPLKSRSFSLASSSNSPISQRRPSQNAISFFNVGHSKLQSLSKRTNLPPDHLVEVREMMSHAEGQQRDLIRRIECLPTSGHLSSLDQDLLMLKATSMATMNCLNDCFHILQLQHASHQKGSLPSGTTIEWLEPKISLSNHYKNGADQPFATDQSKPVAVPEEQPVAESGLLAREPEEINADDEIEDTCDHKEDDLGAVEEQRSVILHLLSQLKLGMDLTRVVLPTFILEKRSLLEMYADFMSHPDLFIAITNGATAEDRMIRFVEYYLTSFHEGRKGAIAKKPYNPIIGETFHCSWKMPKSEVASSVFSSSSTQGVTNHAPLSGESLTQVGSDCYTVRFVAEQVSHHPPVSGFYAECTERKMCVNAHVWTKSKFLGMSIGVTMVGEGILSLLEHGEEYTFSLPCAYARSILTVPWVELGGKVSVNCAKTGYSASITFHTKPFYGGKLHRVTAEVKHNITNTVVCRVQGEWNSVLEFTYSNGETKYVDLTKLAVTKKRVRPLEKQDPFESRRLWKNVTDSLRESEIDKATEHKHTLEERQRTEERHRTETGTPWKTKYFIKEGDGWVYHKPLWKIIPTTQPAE
UniProt Q9BXS6: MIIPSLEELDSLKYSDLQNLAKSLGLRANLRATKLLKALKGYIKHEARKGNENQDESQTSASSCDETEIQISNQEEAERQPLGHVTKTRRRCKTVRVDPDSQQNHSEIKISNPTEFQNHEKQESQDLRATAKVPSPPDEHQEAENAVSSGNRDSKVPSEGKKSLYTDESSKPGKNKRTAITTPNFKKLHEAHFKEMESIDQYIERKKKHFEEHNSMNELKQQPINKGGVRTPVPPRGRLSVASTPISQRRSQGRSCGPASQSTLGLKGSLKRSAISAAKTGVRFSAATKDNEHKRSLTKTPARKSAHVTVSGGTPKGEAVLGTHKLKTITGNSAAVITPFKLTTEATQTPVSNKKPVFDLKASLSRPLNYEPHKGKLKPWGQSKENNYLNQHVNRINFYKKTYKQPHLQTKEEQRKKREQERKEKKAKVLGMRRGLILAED

What was measured:
Experiment in all cases: log2 fold change, soluble protein after heating vs DMSO (PISA); higher = thermal stabilisation; K562 lysate, 10 uM; active = over 0.2 and 3.5 SD of the protein, either way, in both replicates (recomputed)
[1] = compound: C1=CC=C(C=C1)[C@H](COC2=CC3=C(C=C2)NC(=O)N3)NC(=O)C4=CC=CN(C4=O)CC5=CC(=C(C=C5)F)F
In short: (§1)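 Thermal stability, expressed as log-two fold change relative to solvent controls, is given from duplicates. Crude K562 extract in PBS pH 7.4 with 1 mM MgCl2, at 1 mg/mL protein, was treated with 10 μM compound for 30 min and heated in aliquots for 3 min across 48°C-58°C. After pooling, adjustment to 0.5% NP-40 at 4°C and centrifugation at 21,000xg for 90 min, supernatant protein was measured by TMTpro 16plex LC-MS/MS with channel sums equalised.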

[2] = compound: CC1=C(SC2=C1C(=N[C@H](C3=NN=C(N32)C)CC(=O)N)C4=CC=C(C=C4)Cl)C
In short: as §1

[3] = compound: CC1=C2C(=CC=C1)N=C(N(C2=O)C3=CC=CC=C3C)CN4C=NC5=C(N=CN=C54)N
In short: as §1

[4] = compound: Cc1sc2c(c1C)C(c1ccc(Cl)cc1)=N[C@@H](CC(=O)OC(C)(C)C)c1nnc(C)n1-2
In short: as §1

[5] = compound: c1ccc([C@@H]2C[C@H]2NC2CCNCC2)cc1
In short: as §1

Measured: log2 fold change

OTUD7B (UniProt Q6GQQ9)
inactive: [1] -0.004 | [2] 0 | [3] -0.001 | [4] -0.02 | [5] 0.035

ODR4 (UniProt Q5SWX8)
inactive: [1] 0.035 | [2] 0.029 | [3] 0.063 | [4] 0.031 | [5] 0.066

OIP5 (UniProt O43482)
inactive: [1] 0.047 | [2] -0.036 | [3] 0.025 | [4] -0.048 | [5] -0.089

2 successive entries already listed, quoted:
OTUD7B (UniProt Q6GQQ9)
inactive: [1] -0.004 | [2] 0 | [3] -0.001 | [4] -0.02 | [5] 0.035

ODR4 (UniProt Q5SWX8)
inactive: [1] 0.035 | [2] 0.029 | [3] 0.063 | [4] 0.031 | [5] 0.066

Further entries follow:

PAGE1 (UniProt O75459)
inactive: [1] 0.073 | [2] -0.031 | [3] 0 | [4] -0.054 | [5] -0.002

NUP188 (UniProt Q5SRE5)
inactive: [1] -0.044 | [2] -0.009 | [3] 0 | [4] -0.001 | [5] 0.016

NUP155 (UniProt O75694)
inactive: [1] -0.018 | [2] 0.039 | [3] 0.091 | [4] -0.032 | [5] 0.054

PAPSS1 (UniProt O43252)
inactive: [1] 0.032 | [2] 0.013 | [3] 0.029 | [4] 0.002 | [5] -0.038

PACSIN3 (UniProt Q9UKS6)
inactive: [1] 0.067 | [2] -0.074 | [3] 0.031 | [4] -0.036 | [5] 0.09

NUP42 (UniProt O15504)
inactive: [1] 0.035 | [2] -0.014 | [3] 0.101 | [4] 0.044 | [5] 0.116

OSGEP (UniProt Q9NPF4)
inactive: [1] -0.007 | [2] 0.031 | [3] 0.036 | [4] 0.063 | [5] 0.011

OSBPL11 (UniProt Q9BXB4)
inactive: [1] -0.027 | [2] -0.064 | [3] 0.028 | [4] -0.026 | [5] -0.004

NUSAP1 (UniProt Q9BXS6)
inactive: [1] 0.039 | [2] 0.018 | [3] -0.001 | [4] 0.026 | [5] -0.223
